Laboratory results: ChEMBL document CHEMBL1152278, “Discovery of ligands for a novel target, the human telomerase RNA, based on flexible-target virtual screening and NMR” (J Med Chem, 2008)

Assay: Binding affinity to human telomerase P2b RNA by […]
Outline: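 hTR-P2b RNA made by in vitro T7 polymerase transcription from a synthetic DNA template. Titration was at 50 μM RNA in 20 mM sodium phosphate pH 6.7, 50 mM NaCl, 90/10% H₂O/D₂O, 15 °C, with ligand added stepwise. Kd was fitted from 800 MHz imino-proton chemical shifts under a fast-exchange model. Monte Carlo fitting pooled at least 2 (typically 3) peaks to give the standard deviation.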

Q: With `OCCOCCN1CCN(C2=Nc3ccccc3Sc3ccccc32)CC1` [QUETIAPINE] as the compound, how does the Kd read?
A: 1.3 mM
